Results taken from US20180228743A1, “COMPOUNDS AND METHODS OF PROMOTING MYELINATION” (Case Western Reserve University, priority 2016, published 2018).
Where a name gives a salt, the structure may show the parent alone.

By UniProt entry, the sequences of proteins in these tests, tags left out.
UniProt P08912, whole entry: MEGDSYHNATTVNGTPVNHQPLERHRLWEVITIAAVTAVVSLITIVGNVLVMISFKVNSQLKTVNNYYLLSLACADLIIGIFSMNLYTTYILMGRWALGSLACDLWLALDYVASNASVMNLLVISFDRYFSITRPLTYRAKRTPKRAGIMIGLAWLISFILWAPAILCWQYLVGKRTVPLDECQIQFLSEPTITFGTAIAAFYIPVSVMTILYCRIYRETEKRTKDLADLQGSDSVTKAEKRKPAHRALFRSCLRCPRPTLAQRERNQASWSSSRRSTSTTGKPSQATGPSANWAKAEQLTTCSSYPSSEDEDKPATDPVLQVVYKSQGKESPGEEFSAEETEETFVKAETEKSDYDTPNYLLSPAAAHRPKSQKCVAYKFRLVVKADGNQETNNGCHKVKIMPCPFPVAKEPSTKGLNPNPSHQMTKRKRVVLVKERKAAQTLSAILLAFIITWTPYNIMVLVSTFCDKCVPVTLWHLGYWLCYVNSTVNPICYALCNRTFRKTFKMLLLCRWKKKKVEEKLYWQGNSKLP

Experiments:
EpiSC-derived OPCs = assay: High-throughput screening of 3,000 bioactive small molecules for MBP+ oligodendrocyte formation from OPCs; format: cell-based, mouse; conditions: 2 μM, 72 h
muscarinic receptor M5 = muscarinic receptor M5 (Homo sapiens, UniProt P08912); conditions: 2 μM
EBP = target: T1, EBP (Mus musculus, UniProt P70245); assay: EBP enzymatic assay (GC/MS); format: biochemical; conditions: 10 μM, zymostenol 25 μM
T1 construct: active EBP was obtained from mouse microsomes; from tissue
T1 sequence (P70245 1-230): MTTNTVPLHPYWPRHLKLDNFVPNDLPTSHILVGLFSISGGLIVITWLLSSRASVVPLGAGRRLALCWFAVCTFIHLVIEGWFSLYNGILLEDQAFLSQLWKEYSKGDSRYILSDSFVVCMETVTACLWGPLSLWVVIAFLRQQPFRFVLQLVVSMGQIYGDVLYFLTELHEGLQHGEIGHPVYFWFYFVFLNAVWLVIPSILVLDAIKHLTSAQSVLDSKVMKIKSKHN

## CN1CCC[C@@H]1CCO[C@](C)(c1ccccc1)c1ccc(Cl)cc1 [Clemastine fumarate]
EpiSC-derived OPCs
  cell viability (% relative to DMS0): 82.59%
Muscarinic receptor M5
  inhibition of muscarinic receptor M5 isoform: near-complete inhibition
EBP
  inhibition of EBP enzymatic activity: clear inhibition
